Measured values from PubChem BioAssay (NCATS).
The inconclusive results got no clear call from the source; some entries with a clear call stand among them for comparison. Where the call is inconclusive, the potency comes from a doubtful curve fit. Calls of active or inactive are those of the source. Calls follow the shape of the dose curve; as a rule, active = well fitted cell-killing curve with a large enough effect; inconclusive = small, poorly fitted or top-dose-only effect, or effect the other way; inactive = no such curve, though single readings can be large or run the other way.

Legend:
[1] = Quantitative High-Throughput drug screen in 47 multiple myeloma cell lines against the NCATS MIPE library collection: FR4_PLB cell viability assay (AID 1918924; also: nearly all actives have a fitted effect of over 35% in size); settings: FR4_PLB myeloma cells viability, CellTiter-Glo ATP, 48 h; series mostly up to 45.8 µM
Procedure, shortened: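 Primary qHTS used for cherry-picking: cells at 500/well, library compounds for 48 h (37C, 5% CO2), luminescent ATP assay.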

[2] = Quantitative High-Throughput drug screen in 47 multiple myeloma cell lines against the NCATS MIPE library collection: EJM_DSMZ cell viability assay (AID 1918926; also: nearly all actives have a fitted effect of over 30% in size); settings: EJM myeloma cell viability, CellTiter-Glo ATP, 48 h; series mostly up to 45.8 µM
Procedure, shortened: (§1)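 Myeloma cell lines, 500 cells per well, exposed to MIPE 4.0 library compounds for 48 h at 37C, 5% CO2. Viability from ATP by CellTiter-Glo luminescence; normalised to DMSO (100%) and media-only (0%) wells.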

[3] = Quantitative High-Throughput drug screen in 47 multiple myeloma cell lines against the NCATS MIPE library collection: Delta47_JCRB cell viability assay (AID 1918925; also: nearly all actives have a fitted effect of over 45% in size); settings: Delta47 myeloma viability, CellTiter-Glo ATP, 48 h; series mostly up to 45.8 µM
Procedure, shortened: as §1
Potency is read from the fitted curve at half-maximal effect.

| SMILES | Potency [1] | Potency [2] | Potency [3] |
| --- | --- | --- | --- |
| O=C(NCC1CN(c2ccc(N3CCOCC3=O)cc2)C(=O)O1)c1ccc(Cl)s1 (stereo not given) | inconclusive: 0.001 µM | inactive | – |
| NC(=O)Nc1cc(-c2ccc(CN3CCOCC3)cc2)sc1C(N)=O | – | – | active: 2.09 µM |
| C1CCC(C(CC2CCCCN2)C2CCCCC2)CC1 (stereo not given) | – | – | active: 13.2 µM |
| N#CCNC(=O)c1ccc(-c2ccnc(Nc3ccc(N4CCOCC4)cc3)n2)cc1 | – | – | active: 9.35 µM |
| CCN(CC)CCCCNc1ncc2cc(-c3cc(OC)cc(OC)c3)c(NC(=O)NC(C)(C)C)nc2n1 | active: 20.9 µM | active: 23.5 µM | – |
| COc1cc(Cl)cn2c(-c3cccc(NC4CNC4)n3)cnc12 | inconclusive: 18.7 µM [cytotoxic, partial curve, poor fit] | inconclusive: 14.8 µM [cytotoxic, partial curve] | – |
| NC(=O)c1cccc(N)c1 | inactive | inactive | – |
| CC(C)C[C@H](NC(=O)CNC(=O)c1cc(Cl)ccc1Cl)B1OC(=O)CC(CC(=O)O)(C(=O)O)O1 (stereo not given in full) | – | – | active: 0.0332 µM |
| Oc1cc2c(cc1O)C1c3ccc(O)c(O)c3OCC1(O)C2 (stereo not given) | – | – | inactive |
| Nc1ccn([C@@H]2O[C@H](CO)[C@H](O)C2(F)F)c(=O)n1 | inconclusive: 8.33 µM [cytotoxic, full curve, poor fit] | inconclusive: 2.35 µM [cytotoxic, full curve] | – |
| C[C@H](CCC(=O)O)[C@H]1CCC2C3C[C@H](O)[C@@H]4C[C@H](O)CC[C@]4(C)C3CC[C@@]21C (stereo not given in full) | inactive | inactive | – |
| COC(=O)c1ccc2c(C(=Nc3ccc(N(C)C(=O)CN4CCN(C)CC4)cc3)c3ccccc3)c(O)[nH]c2c1 | inconclusive: 16.6 µM [cytotoxic, partial curve, poor fit] | active: 3.72 µM | – |
| CN1CCCC(n2nc(Cc3ccc(Cl)cc3)c3ccccc3c2=O)CC1 (stereo not given) | – | – | inconclusive: 2.64 µM [cytotoxic, full curve] |
| CC(=CC(=O)Nc1ccccc1C(=O)O)c1ccc2ccccc2c1 | inactive | inconclusive: 0.833 µM [cytotoxic, full curve, poor fit] | – |
| O=C(Nc1ccc(Oc2ccnc3[nH]ccc23)c(F)c1)c1cccn(-c2ccc(F)cc2)c1=O | inconclusive: 23.5 µM [cytotoxic, single point] | inconclusive: 26.4 µM [cytotoxic, single point] | – |
| CCOC(=O)[C@H](CCc1ccccc1)N[C@H]1CS[C@H](c2cccs2)CN(CC(=O)O)C1=O | inconclusive: 23.5 µM [cytotoxic, partial curve] | inconclusive: 16.6 µM [cytotoxic, partial curve] | – |
| CCn1cc(C(=O)O)c(=O)c2cc(F)c(N3CCN(C)CC3)cc21 | – | inactive | inactive |
| COc1ccc(C2CNC(=O)C2)cc1OC1CCCC1 (stereo not given) | – | – | inconclusive: 3.32 µM [cytotoxic, full curve, poor fit] |
| Clc1cccc(-c2nnnn2Cc2cccnc2)c1Cl | – | – | inconclusive: 13.2 µM [cytotoxic, partial curve, poor fit] |
| COC1=C(OC)C(=O)C(CC=C(C)CCC=C(C)CCC=C(C)CCC=C(C)CCC=C(C)CCC=C(C)CCC=C(C)CCC=C(C)CCC=C(C)CCC=C(C)C)=C(C)C1=O | – | – | inconclusive: 0.0372 µM [rising, full curve, poor fit] |
| COc1cc2c(Oc3ccc4[nH]c(C)cc4c3F)ncnc2cc1OCCCN1CCCC1 | inconclusive: 33.2 µM [cytotoxic, single point] | inconclusive: 33.2 µM [cytotoxic, single point] | – |
| Nc1cccc2c1C(=O)N(C1CCC(=O)NC1=O)C2=O (stereo not given) | inconclusive: 4.69 µM [cytotoxic, full curve, poor fit] | inconclusive: 2.64 µM [cytotoxic, full curve, poor fit] | – |
| CCOC(=O)[C@H]1O[C@H]1C(=O)N[C@@H](CC(C)C)C(=O)NCCC(C)C | inconclusive: 9.35 µM [cytotoxic, single point] | inactive | – |
| CN(CC=CC#CC(C)(C)C)Cc1cccc2ccccc12 | inactive | inconclusive: 20.9 µM [cytotoxic, single point] | – |
| Cc1nn(Cc2ccccc2Cl)c(C)c1CN(C)CC(O)COc1ccc(Cl)cc1 (stereo not given) | inconclusive: 23.5 µM [cytotoxic, partial curve] | inconclusive: 23.5 µM [cytotoxic, single point] | – |
| CCc1cccc(CC)c1NC(=O)N1Cc2[nH]nc(NC(=O)c3ccc(N4CCN(C)CC4)cc3)c2C1 | inconclusive: 16.6 µM [rising, partial curve, poor fit] | inconclusive: 18.7 µM [cytotoxic, partial curve] | – |
| C[C@H]1[C@H](O)O[C@@H]2O[C@@]3(C)CC[C@@H]4[C@H](C)CC[C@@H]1[C@@]24OO3 | active: 6.62 µM | inconclusive: 8.33 µM [cytotoxic, full curve] | – |
| COc1ccnc2[nH]cc(C(=O)C(=O)N3CCN(C(=O)c4ccccc4)C[C@@H]3C)c12 | inactive | inactive | – |
| CNc1nc(-c2ccc3c(N)n[nH]c3c2)cc(N2C[C@@H](C(=O)NC3CCCCC3)CC[C@@H]2C)n1 | inconclusive: 37.2 µM [cytotoxic, partial curve, poor fit] | inconclusive: 26.4 µM [cytotoxic, single point] | – |
| COc1cc(N2CCC(C(N)=O)CC2)ccc1Nc1nc(N)c(Cl)c(Nc2ccccc2S(=O)(=O)C(C)C)n1 | – | – | active: 0.0833 µM |

Some of these compounds in order of heavy-atom count, falling.

| SMILES | Potency [1] | Potency [2] | Potency [3] |
| --- | --- | --- | --- |
| CCN(CC)CCCCNc1ncc2cc(-c3cc(OC)cc(OC)c3)c(NC(=O)NC(C)(C)C)nc2n1 | active: 20.9 µM | active: 23.5 µM | – |
| CCOC(=O)[C@H]1O[C@H]1C(=O)N[C@@H](CC(C)C)C(=O)NCCC(C)C | inconclusive: 9.35 µM [cytotoxic, single point] | inactive | – |
| COc1ccc(C2CNC(=O)C2)cc1OC1CCCC1 (stereo not given) | – | – | inconclusive: 3.32 µM [cytotoxic, full curve, poor fit] |
